This is an account of results in article PMC11758954.

The exact form of at least one protein or probe is not confirmed. Results from cells or extracts need not show a direct contact. Protein sequences can lack the tags named with them.

The subject of this series is T1, FXRα1 (Homo sapiens).
T1 sequence (looked up, limits assumed): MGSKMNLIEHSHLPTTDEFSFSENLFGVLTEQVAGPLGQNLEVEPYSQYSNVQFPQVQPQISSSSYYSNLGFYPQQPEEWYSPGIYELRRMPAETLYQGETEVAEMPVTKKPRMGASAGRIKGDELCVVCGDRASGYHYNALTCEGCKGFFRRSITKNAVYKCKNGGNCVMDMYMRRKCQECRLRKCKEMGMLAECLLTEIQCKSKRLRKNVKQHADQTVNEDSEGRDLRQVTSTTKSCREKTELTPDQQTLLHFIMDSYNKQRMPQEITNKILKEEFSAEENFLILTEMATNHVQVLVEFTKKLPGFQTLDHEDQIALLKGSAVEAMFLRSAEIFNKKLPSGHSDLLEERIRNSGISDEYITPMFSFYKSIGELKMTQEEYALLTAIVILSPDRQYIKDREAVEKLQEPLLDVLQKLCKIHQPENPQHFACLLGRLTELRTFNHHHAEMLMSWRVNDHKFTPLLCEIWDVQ
In words: EMSA. To be noted: 5 µg nuclear extract, 1 µg poly(dI-dC), EMSA buffer (composition not given), 30 min at 4 °C, 6% native PAGE in 0.5x TBE pH 8.3, protein in a lysate after overexpression, protein details: Flag and HA epitopes (pcDNA3.2), label: 32P.

On to “GATGGGCCAAGGTCAATGACCTCGGGG (double strand) [IR-1 consensus FXRE]”, for which the binding result (HeLa nuclear extract, FXRα1 without co-transfected RXRα (endogenous RXR possible)) is given as “binds” and the binding result (HepG2 nuclear extract, complex enhanced with increasing FXRα1 plasmid over endogenous complex) was “binds”.
